# Experimental data reported in publication PMC7819943, “Rice protein-binding microarrays: a tool to detect cis-acting elements near promoter regions in rice”.
# The chains behind the UniProt entries cited, without tags or fusion partners.
# UniProt Q0JBA9, entry or part of it: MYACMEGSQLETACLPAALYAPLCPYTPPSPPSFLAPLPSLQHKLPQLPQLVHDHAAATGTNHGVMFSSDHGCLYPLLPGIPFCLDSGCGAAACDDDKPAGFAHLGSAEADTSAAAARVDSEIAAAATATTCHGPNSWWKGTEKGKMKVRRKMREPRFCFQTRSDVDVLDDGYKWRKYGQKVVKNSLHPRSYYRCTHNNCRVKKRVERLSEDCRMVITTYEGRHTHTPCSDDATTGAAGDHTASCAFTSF
# The list shows a part of the results.
# Biological target: OsWRKY34 (Oryza sativa, UniProt Q0JBA9 1-250)
# Assay: protein-binding microarray (RPBM); PBS, 2% BSA, 51.3 ng/ul salmon testes DNA, 50 uM zinc acetate, 200 nM TF, 25 C, 1 h; high values mean tight binding
# Conditions: protein: recombinant; tags: N-terminal polyhistidine and DsRed monomer fusion (pET32a); label: CyDye5-dUTP incorporated in the synthesized complementary strand; 3' TTTTT single-stranded linker to array surface; dsDNA, one strand shown
# In short: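 Polyhistidine-tagged DsRed fusions of transcription factors, joined at the N-terminus, were expressed in E. coli BL21-CodonPlus and isolated on Ni–NTA. They were incubated at 200 nM for 1 h at 25 °C on a custom Agilent array, double-stranded and BSA-blocked, in PBS with 2% BSA, salmon testes DNA and 50 µM zinc acetate. The binding signal is per-feature fluorescence intensity (arbitrary units) read on an Axon 4000B scanner after washing.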
row,Sequence,binding signal
1,TATTGCCGTAAGCTCTACCTCTGTTCTTTCTTTCACTGTCCGGAGTCACCTAGTGCAG,12500 fluorescence intensity (a.u.)
2,TTGTTTACTACTCGACATCAGCGTCTCTCTACACATATATCGGAGTCACCTAGTGCAG,8040 fluorescence intensity (a.u.)
3,GATTTGTGTTCCCAGCAAGAAGCCCTTAGTCATTCTAGTCCGGAGTCACCTAGTGCAG,9180 fluorescence intensity (a.u.)
4,CGCCGTCGCCGGGGATGGCCAGCCGCTTCCATTTGCTCTTCGGAGTCACCTAGTGCAG,9900 fluorescence intensity (a.u.)
5,GCGGTGGTTGCGGATTTGTAGCTTAGAGCGCGGGGCCATGCGGAGTCACCTAGTGCAG,9620 fluorescence intensity (a.u.)
6,CTCCCACTTCGCCACCCTCACAAGTCACAACCTTCCCTCACGGAGTCACCTAGTGCAG,9160 fluorescence intensity (a.u.)
7,TTTTACGGTTTAGGGTCATGGATTAGATTCGGGTCACTTTCGGAGTCACCTAGTGCAG,9860 fluorescence intensity (a.u.)
8,ATTTTGAGCCAATTTTGATTTCCTTTACCTTTTCTGTACTCGGAGTCACCTAGTGCAG,8810 fluorescence intensity (a.u.)
9,TGGTTCTGTTTGCTTCCTATATTAATACCTTTTCAATGTACGGAGTCACCTAGTGCAG,9590 fluorescence intensity (a.u.)
10,CACCATCGTCGACCTTGATCTTGCTCCGTTCTTTGGAGCTCGGAGTCACCTAGTGCAG,9440 fluorescence intensity (a.u.)
11,ATCCCCACTCCCACTCCGGCACTTCACCAGTTCACCACCGCGGAGTCACCTAGTGCAG,8740 fluorescence intensity (a.u.)
12,GACCTTTACTTTTTCATCCTACCTAAATGCATATTCCAATCGGAGTCACCTAGTGCAG,9320 fluorescence intensity (a.u.)
13,GTCGCCAACCGTTTTCTCCTCCTCGCTCTCTCCATGTGATCGGAGTCACCTAGTGCAG,9520 fluorescence intensity (a.u.)
14,GATCCCACATTCCTACTGTTCTTTTTGTCACGACCAAAATCGGAGTCACCTAGTGCAG,12700 fluorescence intensity (a.u.)
15,GCTGTTGCACAAGTAGCATCACCAACCTCTCCCTGTCTATCGGAGTCACCTAGTGCAG,8110 fluorescence intensity (a.u.)
16,CATTCATCGTGCGTAGCAAATACTCCGTCCGTACATCTAACGGAGTCACCTAGTGCAG,8690 fluorescence intensity (a.u.)
17,TGCCTCCTTTTGTTTTGCGTCTCCTTATCAGAGTGGATTGCGGAGTCACCTAGTGCAG,8350 fluorescence intensity (a.u.)
18,AGGTCTTTTTCACGTCGCAACCATGGCTTCAAATTTTGCTCGGAGTCACCTAGTGCAG,11900 fluorescence intensity (a.u.)
19,TTCGTTTTACATCCGAGATATTTACGATTTTGGCCGATCGCGGAGTCACCTAGTGCAG,8700 fluorescence intensity (a.u.)
20,AGCACTCTTTTCTTGTCTTTTTTATTATGAACCGGTGGAGCGGAGTCACCTAGTGCAG,8250 fluorescence intensity (a.u.)
21,TTAGTCTATATTTAATACTTCAAATGTTTGTCCATATACTCGGAGTCACCTAGTGCAG,8070 fluorescence intensity (a.u.)
22,CTCTCCCGGTCGCGCCGCCATCTCCTCTCCCAATCGCGCGCGGAGTCACCTAGTGCAG,8860 fluorescence intensity (a.u.)
23,TTTAAACTGACACATGGGTCCCACCTTTTATTTTGCTTCCCGGAGTCACCTAGTGCAG,10700 fluorescence intensity (a.u.)
24,ACCACGGTCCACACTGCCCTGCCCTGCCCGGCTGCCCCTGCGGAGTCACCTAGTGCAG,11000 fluorescence intensity (a.u.)
25,TGGTTCAGCTTTGGTATCATCATGTCGTGTGCGCGCAGCGCGGAGTCACCTAGTGCAG,8650 fluorescence intensity (a.u.)
26,GACACGGCCTCCTCAGCTCCAGTTTCTTTATATCCCATGGCGGAGTCACCTAGTGCAG,8580 fluorescence intensity (a.u.)
27,ACATACCTCGTGCGGCCAGTCGCCTGTTACAAACTCCATTCGGAGTCACCTAGTGCAG,8270 fluorescence intensity (a.u.)

# Exported bar-delimited: entries from further up
row | Sequence | binding signal
17 | TGCCTCCTTTTGTTTTGCGTCTCCTTATCAGAGTGGATTGCGGAGTCACCTAGTGCAG | 8350 fluorescence intensity (a.u.)
18 | AGGTCTTTTTCACGTCGCAACCATGGCTTCAAATTTTGCTCGGAGTCACCTAGTGCAG | 11900 fluorescence intensity (a.u.)
19 | TTCGTTTTACATCCGAGATATTTACGATTTTGGCCGATCGCGGAGTCACCTAGTGCAG | 8700 fluorescence intensity (a.u.)
20 | AGCACTCTTTTCTTGTCTTTTTTATTATGAACCGGTGGAGCGGAGTCACCTAGTGCAG | 8250 fluorescence intensity (a.u.)
21 | TTAGTCTATATTTAATACTTCAAATGTTTGTCCATATACTCGGAGTCACCTAGTGCAG | 8070 fluorescence intensity (a.u.)

# (continued)

row,Sequence,binding signal
1,TATCAATTACATCTTTGTTTCCTTTTCAGTTCAATTGCATCGGAGTCACCTAGTGCAG,8860 fluorescence intensity (a.u.)
2,CACAGACACATTTGGTTAATTACATACCTTGTACACTTCACGGAGTCACCTAGTGCAG,8780 fluorescence intensity (a.u.)
3,TTTTTCCTATTCCTCTGTTTTTTCATTCCTACGATTCAAACGGAGTCACCTAGTGCAG,11100 fluorescence intensity (a.u.)
4,TTTACTCGTACTCCTTTTCATAGCGAGGGGCAAAGTGGGACGGAGTCACCTAGTGCAG,9130 fluorescence intensity (a.u.)
5,TTTTCCGGCACCACCAATCGGGCGGGGCGGTGTGTTACAGCGGAGTCACCTAGTGCAG,13000 fluorescence intensity (a.u.)
6,TCTTATTTTGACTTTTTGGCACTTGAGTTTATCTCTCTTGCGGAGTCACCTAGTGCAG,11500 fluorescence intensity (a.u.)
7,CACTCGCGCCACCCAATTGCACGCATTTACAATTCAATTCCGGAGTCACCTAGTGCAG,11400 fluorescence intensity (a.u.)
8,TTTCTTATTAACACCCTGTTTAATTTTTTATTTCTTATTTCGGAGTCACCTAGTGCAG,8480 fluorescence intensity (a.u.)
9,CACTTGGTAATTACTTCTACTATGTCATCCTTATCATAATCGGAGTCACCTAGTGCAG,15200 fluorescence intensity (a.u.)
10,CCACCCGCCTCGCCGAATCCGGGCCGTCCATTCCTCCGCTCGGAGTCACCTAGTGCAG,11800 fluorescence intensity (a.u.)
11,TTTACGTGTTTGGTGTGTTCTACAGTTCGAGATGTGTCGACGGAGTCACCTAGTGCAG,9740 fluorescence intensity (a.u.)
12,CCCATCACTTCCCGTACACCTGGCACCCCTACACTCCCGCCGGAGTCACCTAGTGCAG,8630 fluorescence intensity (a.u.)
13,GCCACGAACGCGCCGTCACCATCGCGCATCACCCCTAGCCCGGAGTCACCTAGTGCAG,9710 fluorescence intensity (a.u.)
14,GTCTCCGCCGTAACCTCCTGCGAGCGGCCTCCTCGCCGCTCGGAGTCACCTAGTGCAG,11500 fluorescence intensity (a.u.)
15,AAGTCATTCTCCACGGCGTCCTTTTTATTACCACCTCTGTCGGAGTCACCTAGTGCAG,12500 fluorescence intensity (a.u.)
16,CCATTTTGATACCTATTCGTCCCGTATTTATGCCCGCTGTCGGAGTCACCTAGTGCAG,12000 fluorescence intensity (a.u.)
17,GGTTGTAATTTGGTAATGCCATTTTTTTTTTTGTTATTGACGGAGTCACCTAGTGCAG,11200 fluorescence intensity (a.u.)
18,CTCTCTGTGTGTGTGTTTGCTTTCTTGGGCTGTATCGACTCGGAGTCACCTAGTGCAG,11800 fluorescence intensity (a.u.)
19,CCTTTTGTGGTTTATAGTTTCCACCTGACCTGACAAAAAGCGGAGTCACCTAGTGCAG,9040 fluorescence intensity (a.u.)
20,AATCTATCGACGCCACCGATCGACCTACGCCTGCAAATTACGGAGTCACCTAGTGCAG,8240 fluorescence intensity (a.u.)
21,TCCCCACCAACTGCCGCCTCTCGTCGCCTCGCCTCGCCGGCGGAGTCACCTAGTGCAG,8040 fluorescence intensity (a.u.)
22,ATACTCTATCTCTGAGATTCAGATTACTAGTTTTGTTGGACGGAGTCACCTAGTGCAG,8660 fluorescence intensity (a.u.)
23,CGCCGGCTTTGGATTTTTCGTTCTGCCTCGCGACCGACGACGGAGTCACCTAGTGCAG,10500 fluorescence intensity (a.u.)
24,CTCCTCATCCTCATCGTCGCCGCCGCCCACGTCGTCTCGCCGGAGTCACCTAGTGCAG,9110 fluorescence intensity (a.u.)
25,TAAACTTGCTCTGATGCGCCCACACGGGGCCACGGCGCGCCGGAGTCACCTAGTGCAG,9010 fluorescence intensity (a.u.)
26,CGAAACTTCGACGTATTCGCCGACTGATCTTTTCGATCTACGGAGTCACCTAGTGCAG,10100 fluorescence intensity (a.u.)
27,AATCGTTGATGAGCCGCGGTCGTTTCCTCTTCTCTTGCGTCGGAGTCACCTAGTGCAG,11100 fluorescence intensity (a.u.)
